The text below walks through data of publication PMC7819943, “Rice protein-binding microarrays: a tool to detect cis-acting elements near promoter regions in rice”.

The chains behind the UniProt entries cited, without tags or fusion partners.
UniProt Q0JBA9, entry or part of it: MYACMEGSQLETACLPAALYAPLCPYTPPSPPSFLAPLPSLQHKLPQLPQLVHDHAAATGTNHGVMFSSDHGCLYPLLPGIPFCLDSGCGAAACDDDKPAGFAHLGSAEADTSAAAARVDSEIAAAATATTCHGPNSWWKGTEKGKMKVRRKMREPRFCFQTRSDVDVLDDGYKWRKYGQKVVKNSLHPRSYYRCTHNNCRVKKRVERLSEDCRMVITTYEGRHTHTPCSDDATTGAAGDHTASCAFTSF

The other results are listed elsewhere or left out.

This assay has as its target OsWRKY34 (Oryza sativa, UniProt Q0JBA9 1-250). The experiment in a line: protein-binding microarray (RPBM); PBS, 2% BSA, 51.3 ng/ul salmon testes DNA, 50 uM zinc acetate, 200 nM TF, 25 C, 1 h; high values mean tight binding. Conditions: protein: recombinant; tags: N-terminal polyhistidine and DsRed monomer fusion (pET32a); label: CyDye5-dUTP incorporated in the synthesized complementary strand; 3' TTTTT single-stranded linker to array surface; dsDNA, one strand shown. An outline of the steps: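 The binding signal for each feature is its fluorescence intensity in arbitrary units. An Axon 4000B scanner was used to read a custom Agilent array that had been made double-stranded with Cy5-dUTP primer extension, blocked with 2% BSA, incubated at 25 °C for 1 h with 200 nM protein in PBS, 2% BSA, salmon testes DNA and 50 µM zinc acetate, and washed. The protein was an N-terminal polyhistidine–DsRed transcription factor fusion from E. coli BL21-CodonPlus, purified on Ni–NTA.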
As for “AGGGGTAGGATTTACGTGCGTGCGTTTTTTAGGGGTGAGTCGGAGTCACCTAGTGCAG”, the binding signal was 10400 fluorescence intensity (a.u.).

Take “GCTCTCTCTCTCTTCTCCTCCTCCTCATCTCGGCAAAACCCGGAGTCACCTAGTGCAG”: the binding signal was 8390 fluorescence intensity (a.u.).

Turning to “TACGGTCCAAACTATCTCCCTACTTTTCTTCTTCCGTAAACGGAGTCACCTAGTGCAG”, the binding signal is 13800 fluorescence intensity (a.u.). “AAGTTTCAATGCAGGAGGTCACATGTTTTCTTTATTTGCACGGAGTCACCTAGTGCAG”: the binding signal was 10200 fluorescence intensity (a.u.).

Turning to “TTTCGATCTGTTGTTTTATCTTTCTTTTCTTTTTTCTTTTCGGAGTCACCTAGTGCAG”, the binding signal was 13000 fluorescence intensity (a.u.). Take “GCCGGCGCCGCGCCTCCCCACCGTCCCCGCCGCCGTCCGCCGGAGTCACCTAGTGCAG”: the binding signal was 9900 fluorescence intensity (a.u.). Under “GGACGGCGGCGAGCGGCGAGGAGGAGGCGGGGAGGTGGGACGGAGTCACCTAGTGCAG” stands 9580 fluorescence intensity (a.u.); under “ACCTGCTCAGTATTTTAACCCTATCACTGCCTGCCACGATCGGAGTCACCTAGTGCAG”, 10900 fluorescence intensity (a.u.); under “CTGCTAAAAGTTTTCGGTTTTTGGGTATACCAACCATTCACGGAGTCACCTAGTGCAG”, 8260 fluorescence intensity (a.u.).

On to “TCGCTAGGAGTGGTGGTGGTGGTGGGAGGAGGAGGCGATGCGGAGTCACCTAGTGCAG”, for which the binding signal was 13000 fluorescence intensity (a.u.). “GTGTTTATTACCCGGTAGATCTGTATATTGTAGATGCATGCGGAGTCACCTAGTGCAG”: the binding signal is 8260 fluorescence intensity (a.u.). As to “ACACCAATACATATGCCACAAATTTACAGATCTAGATTCACGGAGTCACCTAGTGCAG”, the binding signal was 8420 fluorescence intensity (a.u.).

As to “ACTCTACAAGTCGACATTAACGTTGTGACAGTGTTTCTTTCGGAGTCACCTAGTGCAG”, the binding signal was 8980 fluorescence intensity (a.u.). “TATATCGGGACATATGAGGGTGTAGTACTTTGGTAGTGTTCGGAGTCACCTAGTGCAG”: the binding signal is 8640 fluorescence intensity (a.u.).

As to “TGGGTTTCGATTTTAGCAAATATCCTTGTAACTATTATTACGGAGTCACCTAGTGCAG”, the binding signal was 9170 fluorescence intensity (a.u.). For the sequence “AATCCTGAAGCCCGGCCCACCCAAGCTACCTAGCTCTCGACGGAGTCACCTAGTGCAG”, the binding signal is 9000 fluorescence intensity (a.u.). Regarding “ACCAATGAAGGGGTGGGCATTCGGTCTTTCGGTCATTTCGCGGAGTCACCTAGTGCAG”, the binding signal was 12600 fluorescence intensity (a.u.). Under “GTCCACCACCCACCTCGTACGTGTTCTGTCCACACACGCGCGGAGTCACCTAGTGCAG” stands 10200 fluorescence intensity (a.u.); under “GCAACCATAGTTTTTCGCGCTCAACTTTAATCATTCGTCTCGGAGTCACCTAGTGCAG”, 8790 fluorescence intensity (a.u.); under “GAGAGGTGGAGATCAGGAAACAGGGGAGGGAGAGAGGTTTCGGAGTCACCTAGTGCAG”, 13700 fluorescence intensity (a.u.). For “GGCTTTACTTGTCATGTGCTCTTGTTAATATTCTCTGTTGCGGAGTCACCTAGTGCAG”, the binding signal was 12700 fluorescence intensity (a.u.).

With “ACTCATTATCATTGGCCTCTCACGTTTCCATGGAAATATTCGGAGTCACCTAGTGCAG”, the binding signal is 9140 fluorescence intensity (a.u.). Under “CCGCGCTACCCATCGACCGATCCTACTCGCACGCGCACACCGGAGTCACCTAGTGCAG” stands 9510 fluorescence intensity (a.u.). Under “TGTGTGGTCTGGCCTTTCTCTTCTCTCTCAAGACAGCGTTCGGAGTCACCTAGTGCAG” stands 9380 fluorescence intensity (a.u.); under “TCCACGACAGTTCACATTACAACTCTCTCTCTCTTGTCTGCGGAGTCACCTAGTGCAG”, 9560 fluorescence intensity (a.u.); under “ATGTTTTTGAAAATCTTTGGTGGACTTTCTTAATGTTTTTCGGAGTCACCTAGTGCAG”, 8170 fluorescence intensity (a.u.). As for “CACCCTGACCCAATTTGTGAATTCCAATTGATTTTAGTTACGGAGTCACCTAGTGCAG”, the binding signal was 8140 fluorescence intensity (a.u.). Under “CCCACTCCATATACATGTGCCTCTCTTGTCCTGTATATATCGGAGTCACCTAGTGCAG” stands 9950 fluorescence intensity (a.u.). “TAACTTTACACCATCTTTTGCCTACCTTTTACCTTTACCTCGGAGTCACCTAGTGCAG”: the binding signal was 8320 fluorescence intensity (a.u.). Take “GGGGCTGAACAAGGAGTTTGAGGACAGAAGAGCGGCTATGCGGAGTCACCTAGTGCAG”: the binding signal is 8290 fluorescence intensity (a.u.). “ACTACATCCGCGCACCTGCTTTGCTCGTCGACGATTATAACGGAGTCACCTAGTGCAG”: the binding signal was 12900 fluorescence intensity (a.u.). Turning to “GATTACGTTCTTGAGAAATTATTAAAACTTTGCTTTTTTTCGGAGTCACCTAGTGCAG”, the binding signal is 9090 fluorescence intensity (a.u.). For the sequence “GCCTAAGTGTTACGCACTCCGCTACTCCACTTTCTTGTGTCGGAGTCACCTAGTGCAG”, the binding signal was 8500 fluorescence intensity (a.u.).

“CTGTAGTTGCCTTTGTTGGTCTTGGTTTTGCTGTTCTGGTCGGAGTCACCTAGTGCAG”: the binding signal is 9910 fluorescence intensity (a.u.).

With “GAGTGGATGGTTGGAATGGATGGGTTGGTGTAGATAATAACGGAGTCACCTAGTGCAG”, the binding signal was 14000 fluorescence intensity (a.u.). Turning to “GTCAGCATAGTCGCACACAAACGCGATTTCTTCTCCTCTCCGGAGTCACCTAGTGCAG”, the binding signal is 8200 fluorescence intensity (a.u.). As to “TTTCTTGGGCTGTATCGACTATCATTGTCTGACATTTCTACGGAGTCACCTAGTGCAG”, the binding signal is 12300 fluorescence intensity (a.u.).

On to “TCGTCTAGATCACGTTTCTGGAGAGCTCCAGGGTCTCTTTCGGAGTCACCTAGTGCAG”, for which the binding signal was 8470 fluorescence intensity (a.u.). Take “ACAGCCAACATCTCTTGCATATGTACAACAATCAGCTGCCCGGAGTCACCTAGTGCAG”: the binding signal was 9090 fluorescence intensity (a.u.).

Take “GTTAGGCGGTGGCGCGCGTACATACGTTCCCACTTATCATCGGAGTCACCTAGTGCAG”: the binding signal is 10100 fluorescence intensity (a.u.). The same measure for “CTCTTAAATTTACGCTGTGGCTGATACTCCCTCTGTCCCGCGGAGTCACCTAGTGCAG”: 8240 fluorescence intensity (a.u.); for “ACCATGGAAGATGCCGCTGTATTGTGTGTTCTTTTTGCTTCGGAGTCACCTAGTGCAG”: 9310 fluorescence intensity (a.u.); for “AGGTGGTGAAGTGGAGTGGAGTGGAGAGTATCTTCTTCTTCGGAGTCACCTAGTGCAG”: 10000 fluorescence intensity (a.u.). On to “GTCGCAACCTGACCAACGTTAGTCCACACACACACTTCTTCGGAGTCACCTAGTGCAG”, for which the binding signal was 10200 fluorescence intensity (a.u.). As for “AGTGGGATCTAGTGATTGTGTGCTCGTTTGACCTCCATTTCGGAGTCACCTAGTGCAG”, the binding signal was 12500 fluorescence intensity (a.u.). The same measure for “GCGTACTACCTCTCAACTTGGAGCATCTCTGCTTATTAGTCGGAGTCACCTAGTGCAG”: 8820 fluorescence intensity (a.u.); for “ACCTTCGCTTTCTCCACACGCAACCGACCACCCCTTCTTCCGGAGTCACCTAGTGCAG”: 9110 fluorescence intensity (a.u.); for “TGGCCTTGTTTTGGACTTTTTTCTTTTGGCATGGTGATGACGGAGTCACCTAGTGCAG”: 8100 fluorescence intensity (a.u.). As for “GCCTCCTGACCACGCGGGTTTTCTGCCCCTGCCGCTGACCCGGAGTCACCTAGTGCAG”, the binding signal was 8120 fluorescence intensity (a.u.).

Take “TCTTTTCTCACGCTTTTTCCGTTACCCGCGAAGAGCTGAACGGAGTCACCTAGTGCAG”: the binding signal is 8610 fluorescence intensity (a.u.). Under “CTAATTTTCATATCCATACTTCTTCTAGGCATGCAACATACGGAGTCACCTAGTGCAG” stands 8300 fluorescence intensity (a.u.); under “TCTTCGATGGATTTGATGGTTTCATCACGCGTCTCCTCATCGGAGTCACCTAGTGCAG”, 11600 fluorescence intensity (a.u.). As to “TATGCCATCGTCCAACTTTATCGCGTCCTCCACACCAACTCGGAGTCACCTAGTGCAG”, the binding signal is 11800 fluorescence intensity (a.u.). Turning to “CGCACCATATCCAATTGTCATTCGCTGTTTCAACCGTCCTCGGAGTCACCTAGTGCAG”, the binding signal was 10700 fluorescence intensity (a.u.).
